Results reported in publication doi:10.1101/2023.05.06.539700.
Where two headings read alike, the source gives them in different places. These are yes or no findings as the source states them, for the method shown. Binding seen in cells or lysates may run through a third protein. Some binding calls cover weakened binding; strength is not graded here. Where a sequence is shown, tags or fusion partners need not be part of it.

By UniProt entry, the sequences of proteins in these tests, tags left out.
UniProt Q92993: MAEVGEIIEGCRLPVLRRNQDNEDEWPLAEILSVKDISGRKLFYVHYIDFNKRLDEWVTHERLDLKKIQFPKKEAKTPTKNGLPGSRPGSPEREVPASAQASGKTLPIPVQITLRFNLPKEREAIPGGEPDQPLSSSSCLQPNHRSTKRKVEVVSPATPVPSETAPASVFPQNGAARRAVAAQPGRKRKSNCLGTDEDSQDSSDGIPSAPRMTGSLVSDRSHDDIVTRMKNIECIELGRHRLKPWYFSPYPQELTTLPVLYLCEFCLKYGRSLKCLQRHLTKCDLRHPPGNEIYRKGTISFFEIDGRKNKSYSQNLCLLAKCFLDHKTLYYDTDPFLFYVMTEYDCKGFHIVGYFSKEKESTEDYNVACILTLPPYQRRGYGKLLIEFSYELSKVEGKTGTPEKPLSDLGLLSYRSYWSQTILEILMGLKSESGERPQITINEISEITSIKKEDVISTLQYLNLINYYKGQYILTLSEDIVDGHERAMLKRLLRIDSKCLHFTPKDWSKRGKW

Tests used:
GFP-PXR [1] = target: T1, GFP-PXR (UniProt O75469); assay: co-IP
T1 sequence: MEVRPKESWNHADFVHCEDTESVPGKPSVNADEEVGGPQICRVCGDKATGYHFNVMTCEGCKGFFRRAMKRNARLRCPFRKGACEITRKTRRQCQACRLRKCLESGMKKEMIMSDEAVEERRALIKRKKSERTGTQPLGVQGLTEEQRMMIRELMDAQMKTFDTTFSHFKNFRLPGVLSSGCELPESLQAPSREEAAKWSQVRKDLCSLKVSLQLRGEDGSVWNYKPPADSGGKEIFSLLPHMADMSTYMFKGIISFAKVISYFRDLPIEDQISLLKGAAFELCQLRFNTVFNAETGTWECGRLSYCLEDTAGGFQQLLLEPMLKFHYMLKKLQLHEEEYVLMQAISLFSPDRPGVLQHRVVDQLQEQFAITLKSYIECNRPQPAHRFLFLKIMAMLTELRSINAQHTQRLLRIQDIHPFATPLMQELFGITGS

GFP-PXR [2] = target: T1, GFP-PXR; assay: co-IP; remark: listed apart in the source

binding (GFP-PXR [1])	binding (GFP-PXR [2])	Substance
binds	–	pcDNA3.1-TIP60 (Wild-type) (from UniProt Q92993 1-513) (enzyme)
binds	binds	RFP-TIP60 (Wild-type) (from UniProt Q92993 1-513) (enzyme)
